Results from article doi:10.1101/2023.08.17.553795.
Results are given in words; binding and its absence hold for the method and conditions named. Binding seen in cells or lysates may run through a third protein. Some entries that bind do so weakly or less than the wild type.

Chains of the proteins cited; added tags and fusions are not shown.
UniProt P22366, whole entry: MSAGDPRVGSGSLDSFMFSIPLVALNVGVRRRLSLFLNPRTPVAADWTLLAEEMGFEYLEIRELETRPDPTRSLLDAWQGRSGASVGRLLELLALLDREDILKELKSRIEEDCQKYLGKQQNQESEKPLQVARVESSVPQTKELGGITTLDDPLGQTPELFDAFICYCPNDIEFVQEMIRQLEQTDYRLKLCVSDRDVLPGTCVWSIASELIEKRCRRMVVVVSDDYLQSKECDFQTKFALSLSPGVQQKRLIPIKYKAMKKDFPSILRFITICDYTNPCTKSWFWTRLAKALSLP
UniProt P56477, whole entry: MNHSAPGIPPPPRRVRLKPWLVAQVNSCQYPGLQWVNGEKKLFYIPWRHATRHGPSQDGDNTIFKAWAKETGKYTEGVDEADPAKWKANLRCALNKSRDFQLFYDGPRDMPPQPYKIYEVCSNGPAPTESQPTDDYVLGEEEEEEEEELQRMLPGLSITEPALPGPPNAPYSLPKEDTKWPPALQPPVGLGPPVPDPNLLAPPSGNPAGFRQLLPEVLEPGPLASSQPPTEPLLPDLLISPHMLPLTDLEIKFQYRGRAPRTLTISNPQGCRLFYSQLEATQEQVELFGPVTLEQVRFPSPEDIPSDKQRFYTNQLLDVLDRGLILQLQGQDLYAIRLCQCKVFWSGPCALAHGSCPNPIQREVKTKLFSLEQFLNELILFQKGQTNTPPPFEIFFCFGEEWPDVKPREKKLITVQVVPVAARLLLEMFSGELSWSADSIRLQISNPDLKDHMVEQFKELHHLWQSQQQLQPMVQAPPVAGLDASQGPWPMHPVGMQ

Experiments:
Assay in all cases: co-IP
[1] = molecular target: MyD88 (mouse (endogenous in peritoneal lavage cells)) (UniProt P22366)
[2] = molecular target: T1, interferon regulatory factors 4 (IRF4) (mouse (endogenous in peritoneal lavage cells)) (UniProt Q64287)
T1 sequence: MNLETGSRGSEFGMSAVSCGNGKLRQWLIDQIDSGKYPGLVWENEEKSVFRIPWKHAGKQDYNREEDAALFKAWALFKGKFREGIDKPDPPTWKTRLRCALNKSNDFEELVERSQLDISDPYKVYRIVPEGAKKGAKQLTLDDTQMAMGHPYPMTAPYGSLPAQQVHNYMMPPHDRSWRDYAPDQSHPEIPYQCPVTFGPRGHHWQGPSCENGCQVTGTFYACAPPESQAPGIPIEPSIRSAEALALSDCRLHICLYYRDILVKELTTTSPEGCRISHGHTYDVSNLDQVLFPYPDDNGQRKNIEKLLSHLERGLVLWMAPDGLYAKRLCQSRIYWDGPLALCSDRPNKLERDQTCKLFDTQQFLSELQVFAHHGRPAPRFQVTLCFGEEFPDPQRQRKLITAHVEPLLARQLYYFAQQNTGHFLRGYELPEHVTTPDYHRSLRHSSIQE

[3] = molecular target: interferon regulatory factors 5 (IRF5) (mouse (endogenous in peritoneal lavage cells)) (UniProt P56477)

Row | binding [1] | binding [2] | binding [3] | Substance
1 | binds | – | – | interferon regulatory factors 5 (IRF5) (from UniProt P56477 1-497)
2 | – | binds | binds | MyD88 (from UniProt P22366 1-296)
